From patent US20240336927
For at least one entry, the source does not settle the construct or the ends of the probe. No signal at the amounts used counts as a negative.

Legend:
[1] = system: IgG MS1 (multiple sclerosis) (human); assay: EMSA; settings: purified native protein; label: 32P
[2] = system: IgG RA1 (rheumatoid arthritis) (human); assay: EMSA; settings: purified native protein; label: 32P

Sequence | binding result [1] | binding result [2]
GAGGCGGGAGGAUAGCUUGAGCCCAGGAGUUCGAGACCUGCCUGGGCAAUAUAGCGAGACCCCGUUCUC [BC200 RNA full-length] | no binding | no binding
GGGGUUGGGGAUUUAGCUCAGUGGUAGAGCGCUUGCCUAGCAAGCGCAAGGCCCUGGGUUCGGUCCUCAGCUCC [BC1 RNA full-length] | no binding | no binding
